Measurements taken from paper PMC10721275.
These are yes or no findings as the source states them, for the method shown. Binding seen in cells or lysates may run through a third protein. Some entries that bind do so weakly or less than the wild type.

Sequences of proteins named here, by UniProt entry; tags and fusion partners are left off. Residues count along the entry.
UniProt O14786, residues 22-923: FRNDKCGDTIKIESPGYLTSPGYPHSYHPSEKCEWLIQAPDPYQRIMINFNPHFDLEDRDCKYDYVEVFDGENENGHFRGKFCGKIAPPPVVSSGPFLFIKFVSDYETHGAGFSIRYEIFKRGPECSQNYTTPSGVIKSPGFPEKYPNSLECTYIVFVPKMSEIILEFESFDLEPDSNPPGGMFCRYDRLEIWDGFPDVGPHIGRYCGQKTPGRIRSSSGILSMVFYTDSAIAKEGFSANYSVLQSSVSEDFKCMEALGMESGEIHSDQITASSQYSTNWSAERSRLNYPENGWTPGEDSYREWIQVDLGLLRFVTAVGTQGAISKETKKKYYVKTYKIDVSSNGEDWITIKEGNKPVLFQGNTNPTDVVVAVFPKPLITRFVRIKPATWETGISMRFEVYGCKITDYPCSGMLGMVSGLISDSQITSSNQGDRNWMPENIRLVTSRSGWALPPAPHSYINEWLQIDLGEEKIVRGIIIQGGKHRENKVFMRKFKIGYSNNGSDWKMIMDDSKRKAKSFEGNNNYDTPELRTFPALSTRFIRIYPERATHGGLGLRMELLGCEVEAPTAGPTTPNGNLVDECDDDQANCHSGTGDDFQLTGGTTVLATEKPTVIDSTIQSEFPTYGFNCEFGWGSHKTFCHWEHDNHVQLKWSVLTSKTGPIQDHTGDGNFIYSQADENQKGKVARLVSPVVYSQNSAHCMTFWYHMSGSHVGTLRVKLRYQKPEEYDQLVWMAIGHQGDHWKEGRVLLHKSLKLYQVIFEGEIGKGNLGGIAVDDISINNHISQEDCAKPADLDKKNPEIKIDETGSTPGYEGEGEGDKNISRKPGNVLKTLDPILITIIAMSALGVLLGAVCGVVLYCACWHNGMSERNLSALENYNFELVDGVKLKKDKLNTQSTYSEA

Experiments:
[1] = target: neuropilin-1 (human (endogenous in patient-derived GBM cells and GBM specimens)) (UniProt O14786); assay: co-IP; 500 μg protein from GBM cells (treated with or without rSema3A or rVEGF165) or patient GBM specimens, Pierce IP lysis buffer; incubated overnight with 2 μg NRP1 or TGF-βR1 Ab on protein A/G beads; immunoblot
[2] = target: neuropilin-1 (human (endogenous in patient-derived GBM cells and GBM specimens)) (UniProt O14786); assay: proximity ligation; GBM cells treated with rSema3A or vehicle for 10 minutes, fixed with 4% paraformaldehyde; anti-NRP1 (mouse) and anti-TGF-βR1 (rabbit) Abs, Duolink PLA PLUS and MINUS probes; red dots counted in 5 random fields

B1: TGF-β receptor 1 (receptor, UniProt P36897 34-503)
chain: LQCFCHLCTKDNFTCVTDGLCFVSVTETTDKVIHNSMCIAEIDLIPRDRPFVCAPSSKTGSVTTTYCCNQDHCNKIELPTTVKSSPGLGPVELAAVIAGPVCFVCISLMLMVYICHNRTVIHHRVPNEEDPSLDRPFISEGTTLKDLIYDMTTSGSGSGLPLLVQRTIARTIVLQESIGKGRFGEVWRGKWRGEEVAVKIFSSREERSWFREAEIYQTVMLRHENILGFIAADNKDNGTWTQLWLVSDYHEHGSLFDYLNRYTVTVEGMIKLALSTASGLAHLHMEIVGTQGKPAIAHRDLKSKNILVKKNGTCCIADLGLAVRHDSATDTIDIAPNHRVGTKRYMAPEVLDDSINMKHFESFKRADIYAMGLVFWEIARRCSIGGIHEDYQLPYYDLVPSDPSVEEMRKVVCEQKLRPNIPNRWQSCEALRVMAKIMRECWYANGAARLTALRIKKTLSQLSQQEGIKM
binding [1]: binds
binding [2]: binds
